Measurements reported in patent CN114395037A.
These are yes or no findings as the source states them, for the method shown. Some results given as binding are weak or reduced against the parent protein; the word gives no strength.

Biological target: CRT N+P结构域 (CALR N+P) (UniProt P27797)
Test: ELISA, plate coated with CRT protein, HA-tagged nanobody detected with anti-HA

- binding: binds
B1: 204纳米抗体 (VHH, not shown: small tags and cut ends)
VHH: AVQLVESGGGLVQAGGSLRLSCVASGRPFSLYAVGWFRQAPGKAREFVAAISRSGSTTDHADSVKGRFTVSRDNDANTVSLLMSNLKPEDTAIYYCAAARSTRGYDYWGQGTQVTVSS
